# From the supplement of paper PMC3334620
# In all, about 33,000 sequences were measured (“E-score (-0.5 to 0.5)”: median about -0.015, highest 2% from about 0.3 on). Some of the results follow.
# Molecular target: T1, Abf1 (UniProt P14164)
# T1 sequence: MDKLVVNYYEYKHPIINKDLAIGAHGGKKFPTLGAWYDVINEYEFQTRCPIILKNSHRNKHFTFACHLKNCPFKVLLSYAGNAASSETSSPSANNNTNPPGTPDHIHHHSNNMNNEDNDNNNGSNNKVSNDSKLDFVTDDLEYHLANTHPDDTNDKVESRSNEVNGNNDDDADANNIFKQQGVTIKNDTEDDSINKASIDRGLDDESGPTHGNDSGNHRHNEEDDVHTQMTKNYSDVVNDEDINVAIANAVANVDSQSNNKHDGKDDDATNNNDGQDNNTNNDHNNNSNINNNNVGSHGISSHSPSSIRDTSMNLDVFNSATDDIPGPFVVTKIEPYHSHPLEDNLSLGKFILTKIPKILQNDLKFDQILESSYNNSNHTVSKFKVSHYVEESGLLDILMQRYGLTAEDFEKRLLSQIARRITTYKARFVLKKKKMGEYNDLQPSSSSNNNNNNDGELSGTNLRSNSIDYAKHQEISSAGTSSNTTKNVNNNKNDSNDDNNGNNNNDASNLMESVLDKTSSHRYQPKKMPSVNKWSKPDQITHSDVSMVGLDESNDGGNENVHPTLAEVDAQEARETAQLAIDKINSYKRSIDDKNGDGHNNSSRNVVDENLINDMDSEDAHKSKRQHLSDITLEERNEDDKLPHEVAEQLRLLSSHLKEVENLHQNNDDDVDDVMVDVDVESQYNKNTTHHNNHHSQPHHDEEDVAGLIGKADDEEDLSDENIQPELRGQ
# Test: PBM E-score (8-mer binding enrichment) (E-score (-0.5 to 0.5)); higher = stronger / more preferred TF binding
# Settings: protein concentration: 200 nM; construct: GST-full length
# In short: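 PURExpress in vitro transcription/translation supplied GST-tagged yeast transcription factors, either full-length or DNA-binding domain. Applied at about 100-200 nM to universal all-10-mer Agilent arrays double-stranded by primer extension, the bound protein was detected with fluorescent anti-GST. E-scores, modified Wilcoxon-Mann-Whitney statistics, were given by the Universal PBM Analysis Suite to ungapped eight-base words pooled with their reverse complements after masliner normalisation.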
row,Sequence,PBM E-score
1,CCATGGCG,-0.0796
2,CCGATTGA,0.0352
3,AACGTGAT,0.327
4,CCAAAATC,0.0893
5,AAATTTTA,0.0691
6,GCGCCACA,-0.0558
7,AGACGCCC,-0.142
8,AATTACAG,0.0441
9,CCTATCCC,0.0149
10,ATGTGCCA,0.0289
11,ATCCTGAG,0.0562
12,CCACTGGA,-0.125
13,CTTAAAGC,0.115
14,ACCCAGTC,-0.124
15,CGAAGCAA,0.105
16,CGCTCAAG,0.00588
17,TCCCAACA,-0.0284
18,CCTCAACA,0.0393
19,AGTCCTAT,-0.176
20,CAGTTCCA,-0.227
21,CACACTGC,-0.17
22,CCCGCGAG,0.0427
23,AAAATCAC,0.352
24,CGAACCAA,0.0494

# A few values from the entries so far.
# AAATTTTA | PBM E-score: 0.0691
# CACACTGC | PBM E-score: -0.17
# AAAATCAC | PBM E-score: 0.352
# GCGCCACA | PBM E-score: -0.0558
# ATGTGCCA | PBM E-score: 0.0289
# CGAAGCAA | PBM E-score: 0.105
# CAGTTCCA | PBM E-score: -0.227

# The listing continues:

row,Sequence,PBM E-score
1,AAAGTTCG,0.0641
2,GGACTTAA,-0.101
3,GTAGAAAC,-0.0136
4,ATTTGCTA,0.0209
5,AAAATTTT,0.0368
6,AACCGTAG,0.238
7,AAGGTGAA,-0.118
8,AGTCAAGA,0.138
9,CTTACCTC,-0.145
10,ACGCTGCG,-0.193
11,ATCCCAGC,0.099
12,CGAAAAAA,0.193
13,GATGTTAC,0.144
14,AGCCACTC,-0.0968
15,GGCATAGA,0.0186
16,CGCTGCAG,-0.278
17,TCAGAGGA,-0.219
18,AAGTAGTC,-0.00394
19,CAAGGCCG,-0.217
20,AAGTGGCT,-0.149
21,CGTCCCTC,0.113
22,CCGTTTCC,-0.2
23,GGGATGGA,-0.117
24,TAACGTGA,0.16

row,Sequence,PBM E-score
1,CCGAAAGC,-0.2
2,CATGTTCG,0.0859
3,GCAGACTA,-0.0428
4,CCGTTGAC,-0.0281
5,ACCGTCTC,0.105
6,ATGTAAAA,0.152
7,CCTTTCCC,-0.0559
8,ACACCTAC,0.0651
9,AAAGATCA,0.164
10,ATCAAGGA,-0.026
11,ACCGACCA,0.0523
12,AGGGAGCG,-0.135
13,ATGCCTTC,-0.283
14,AGCGGTTA,-0.056
15,CTGGTGTA,-0.188
16,CCATCTCG,-0.111
17,ACGATTGG,0.224
18,ATATTCAT,-0.0447
19,CATACCGG,-0.0253
20,ATGGATTG,-0.0113
21,CTTATCAA,0.164
22,CTCTTATC,0.201
23,CAAGGTAA,0.0843
24,AAAATCAG,0.193

row,Sequence,PBM E-score
1,GGCTGGCA,-0.227
2,AGAGAAGC,-0.262
3,AGTACTAC,0.127
4,GCTCTACA,-0.114
5,ATTCATAC,0.287
6,AACCATCA,-0.07
7,CTAAAAAA,0.149
8,ATGAGTGC,0.153
9,ATGCAAAT,-0.0423
10,GATTTTAA,0.134
11,ACAACAGG,-0.0968
12,ATGGAGAG,-0.009
13,CGAGGCCA,-0.118
14,CATAGCTA,-0.253
15,GTCGGATA,0.0968
16,ACTATATC,0.243
17,CCCGTGAC,0.194
18,AATCTCCT,-0.114
19,GGGGACCC,-0.32
20,AGGCGACG,0.018
21,CGCGGAAC,0.00711
22,GGCGACAA,0.0843
